# From patent US20110135755A1, “Combination therapies for treating neoplastic disease” (priority 2009, published 2011)
# “Also recorded” adds a separate entry of the source.
# Key:
# Type in all cases: in vivo
# Details in all cases: single treatment, compared to control
# [1] = Element concentrations in plasma of treated rats
# [2] = Element concentrations in liver samples of treated rats
# [3] = Element concentrations in kidney samples of treated rats
# Source text: Liver and kidney samples were subsequently examined to see if CV 247 protected the rats from the accumulation of platinum and platinum free radicals, and what kind of metal ion concentration changes occur after treatment.
compound,measurement,setting,value
"N.N.[Cl][Pt][Cl] [Cisplatin, cis-diamminedichloroplatinum]",change of element concentrations in plasma,[1],"decreased K concentration in plasma significantly; also recorded: increased B, Co, Cr, Fe, Mg, Mn, Ni and Sb concentrations; also recorded: presence of Pb in plasma could also be seen"
same,change of element concentrations in liver,[2],increased the Fe concentration in liver significantly; also recorded: Pt appeared in the organ
same,change of element concentrations in the kidney,[3],"decreased the Cu, Mg, Mn, Mo, P and Zn concentrations in the kidney significantly; also recorded: increased the Pb concentration; also recorded: concentration of Pt and Sb become measurable"
